Results are given in words; binding and its absence hold for the method and conditions named. In cells and extracts the contact can be indirect. Some results given as binding are weak or reduced against the parent protein; the word gives no strength. Where a sequence is shown, tags or fusion partners need not be part of it.
Target: c-Raf (UniProt P04049)
Test: co-immunoprecipitation of FAM83A-FLAG from T4-2 cell lysates, western blot with anti-c-Raf antibody

binding: binds
B1: FLAG-tagged FAM83A (protein, not shown: small tags and cut ends)
chain: MSRSRHLGKIRKRLEDVKSQWVRPARADFSDNESARLATDALLDGGSEAYWRVLSQEGEVDFLSSVEAQYIQAQAREPPCPPDTLGGAEAGPKGLDSSSLQSGTYFPVASEGSEPALLHSWASAEKPYLKEKSSATVYFQTVKHNNIRDLVRRCITRTSQVLVILMDVFTDVEIFCDILEAANKRGVFVCVLLDQGGVKLFQEMCDKVQISDSHLKNISIRSVEGEIYCAKSGRKFAGQIREKFIISDWRFVLSGSYSFTWLCGHVHRNILSKFTGQAVELFDEEFRHLYASSKPVMGLKSPRLVAPVPPGAAPANGRLSSSSGSASDRTSSNPFSGRSAGSHPGTRSVSASSGPCSPAAPHPPPPPRFQPHQGPWGAPSPQAHLSPRPHDGPPAAVYSNLGAYRPTRLQLEQLGLVPRLTPTWRPFLQASPHF
modifications: tyrosine-phosphorylated on EGF stimulation; sites not given
